# The other results are listed elsewhere or left out.
# The chains behind the UniProt entries cited, without tags or fusion partners.
# UniProt Q0JBA9, entry or part of it: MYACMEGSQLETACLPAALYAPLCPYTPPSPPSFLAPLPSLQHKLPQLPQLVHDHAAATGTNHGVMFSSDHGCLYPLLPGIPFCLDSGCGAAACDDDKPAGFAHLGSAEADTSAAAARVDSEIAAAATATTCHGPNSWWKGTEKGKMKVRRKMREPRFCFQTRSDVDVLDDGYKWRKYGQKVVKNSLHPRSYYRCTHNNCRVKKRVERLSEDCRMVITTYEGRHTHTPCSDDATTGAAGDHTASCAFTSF
# Target: OsWRKY34 (Oryza sativa, UniProt Q0JBA9 1-250)
# Experiment: protein-binding microarray (RPBM); PBS, 2% BSA, 51.3 ng/ul salmon testes DNA, 50 uM zinc acetate, 200 nM TF, 25 C, 1 h; high values mean tight binding
# Settings: protein: recombinant; tags: N-terminal polyhistidine and DsRed monomer fusion (pET32a); label: CyDye5-dUTP incorporated in the synthesized complementary strand; 3' TTTTT single-stranded linker to array surface; dsDNA, one strand shown
# Method in brief: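 Polyhistidine-tagged DsRed fusions of transcription factors, joined at the N-terminus, were expressed in E. coli BL21-CodonPlus and isolated on Ni–NTA. They were incubated at 200 nM for 1 h at 25 °C on a custom Agilent array, double-stranded and BSA-blocked, in PBS with 2% BSA, salmon testes DNA and 50 µM zinc acetate. The binding signal is per-feature fluorescence intensity (arbitrary units) read on an Axon 4000B scanner after washing.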
row,Sequence,binding signal
1,ATGAATTCGAGACACACTTTGACTTTTGGCTTTTGGCTTTCGGAGTCACCTAGTGCAG,10100 fluorescence intensity (a.u.)
2,TAATTTGGTCGTCTTCCTCCTCCTCACATCACATGCATCTCGGAGTCACCTAGTGCAG,8890 fluorescence intensity (a.u.)
3,GCAGATGATTTTATCTCGATTTTTGTTAACACATTTTTCACGGAGTCACCTAGTGCAG,8390 fluorescence intensity (a.u.)
4,TACATCCTAGCCATCCATCCTTCACATTTCATTTAATTCTCGGAGTCACCTAGTGCAG,9140 fluorescence intensity (a.u.)
5,GCTAGCAAGTAGGCTCTCTCACTCCACACCCACACTACTCCGGAGTCACCTAGTGCAG,8030 fluorescence intensity (a.u.)
6,ATTATTTATTCTTTTCATATCATTTGATTCATTGTTAAATCGGAGTCACCTAGTGCAG,8620 fluorescence intensity (a.u.)
7,TTCTCCGTCCCAGCCACTGTATTCTCTATTTTCCATGAAGCGGAGTCACCTAGTGCAG,12200 fluorescence intensity (a.u.)
8,TTCCTCAGCTTTGCTTCCGGCCGTCGCAATCGAGGATACTCGGAGTCACCTAGTGCAG,8480 fluorescence intensity (a.u.)
9,GACTAGATTAGGCCATCCAATATATTGTACTCATGTGATACGGAGTCACCTAGTGCAG,9170 fluorescence intensity (a.u.)
10,GAAATATTTGACACCGTTGACTTTTTAGCATATGTTTGACCGGAGTCACCTAGTGCAG,30700 fluorescence intensity (a.u.)
11,GTTGCGTCTGGTTTTTCGGTTGAGGGTCGAAAATCGAATTCGGAGTCACCTAGTGCAG,8320 fluorescence intensity (a.u.)
12,CGGTATAATGAGCATACACTTCACCTCTTATTTTCATCTCCGGAGTCACCTAGTGCAG,11200 fluorescence intensity (a.u.)
13,ATTCTAGTCGTAGCCGATCTGGACTCCAGCCGATTCTTACCGGAGTCACCTAGTGCAG,9920 fluorescence intensity (a.u.)
14,GGTTCTGCATTTCCACTGTGCAATTCGGCCATCCTTGATCCGGAGTCACCTAGTGCAG,8490 fluorescence intensity (a.u.)
15,ACTCGAAACTACTGCCCCATCGTACTCACCACCTGCCCCTCGGAGTCACCTAGTGCAG,11600 fluorescence intensity (a.u.)
16,AGCCATCAGTCCATCACCATCTGCTAATCTCTCACATTCACGGAGTCACCTAGTGCAG,8660 fluorescence intensity (a.u.)
17,GTGCTCCTTTCCTGTTACTACTCCCTCCGTCCCGGATTTTCGGAGTCACCTAGTGCAG,10500 fluorescence intensity (a.u.)
18,ACACATGCACATCCACCATACCAAAGTACAATTACTGAACCGGAGTCACCTAGTGCAG,11600 fluorescence intensity (a.u.)
19,AATGTTTTCTTTCTTTCCTAGGTGGGTTTTTTTGGGCCCACGGAGTCACCTAGTGCAG,9780 fluorescence intensity (a.u.)
20,ATTTCCGTTATCATACTTTACGAACTACTACACAATATATCGGAGTCACCTAGTGCAG,9300 fluorescence intensity (a.u.)
21,CGGGGTTGTTGGGGCAGCATCCAGGGCAAGTCCAGTGAAGCGGAGTCACCTAGTGCAG,9950 fluorescence intensity (a.u.)
22,GACTGATCGCCGCTACCCCTACACGGGGAAACCAATTTTTCGGAGTCACCTAGTGCAG,8530 fluorescence intensity (a.u.)
23,GGTCCGACCTTTTATTTTGCTTCCAAGTGCCACATCACCGCGGAGTCACCTAGTGCAG,8260 fluorescence intensity (a.u.)
24,ACGTATTTGTGAGGGGATTTGGTACCATTACATCTGTTTTCGGAGTCACCTAGTGCAG,8192 fluorescence intensity (a.u.)
25,TGAAGAACGACGCACAACCACCCGCGGCTCAACTCGTCCACGGAGTCACCTAGTGCAG,8970 fluorescence intensity (a.u.)
26,ACATAGTTTTCTTCTCTTTCCTCATTTATTCACTTGCCACCGGAGTCACCTAGTGCAG,9390 fluorescence intensity (a.u.)
27,AACCCCTATGCTTCCTCGGTCATCCATGCGTCTATATTGTCGGAGTCACCTAGTGCAG,9370 fluorescence intensity (a.u.)

row,Sequence,binding signal
1,GTCATCTCACGGAGCGGGTTGGAGTCCATTTAGATCTATACGGAGTCACCTAGTGCAG,8500 fluorescence intensity (a.u.)
2,CTGTCTTTCGTCCGCGAAAATTTTCCATTCTTGCGCTTCCCGGAGTCACCTAGTGCAG,9530 fluorescence intensity (a.u.)
3,GTTGGTTTTTACATTTGTTTGCTCGAGTCATATATGTCGTCGGAGTCACCTAGTGCAG,9010 fluorescence intensity (a.u.)
4,CGATGCCACCGCCCCTGCCTGCTTTGCCCGCCGCCGCTCTCGGAGTCACCTAGTGCAG,10400 fluorescence intensity (a.u.)
5,AGCCAGAGGGGAGGGAGCGGGTAGGGTTTTACCTCCTCCCCGGAGTCACCTAGTGCAG,8250 fluorescence intensity (a.u.)
6,CGCCCCGTCGCCACTCTGTTGCCTCCACCAATCTCCTGCACGGAGTCACCTAGTGCAG,10100 fluorescence intensity (a.u.)
7,TCTGTATATAAGGCCTGATTTAGTTCCCAAATTTTTTTTCCGGAGTCACCTAGTGCAG,8100 fluorescence intensity (a.u.)
8,ATCGCACGCAACGAAGACAGACCGTCAGCCTTCACTCACTCGGAGTCACCTAGTGCAG,9720 fluorescence intensity (a.u.)
9,TCTAGGCATGGTTCAGTAGTCAAAGCAACTTCGTCACTTTCGGAGTCACCTAGTGCAG,9650 fluorescence intensity (a.u.)
10,TCGTTTTAATTGACCACGTACTCAATCCGGTACTCTCCTTCGGAGTCACCTAGTGCAG,8330 fluorescence intensity (a.u.)
11,TGTTTGGATGATTTTATGGATGATCACTTCTCTTTATTTACGGAGTCACCTAGTGCAG,8320 fluorescence intensity (a.u.)
12,CCATGGCGGTGTGTCTCCTCAACTTTGCTACTCCAGTTGCCGGAGTCACCTAGTGCAG,8040 fluorescence intensity (a.u.)
13,TTCTGCTACTACCACATATTCAGTTCTTTTACCAACTTTACGGAGTCACCTAGTGCAG,10800 fluorescence intensity (a.u.)
14,ATACTGCTGTTCGTAACATCCTTGCAGCTGCAGCCCACAACGGAGTCACCTAGTGCAG,9450 fluorescence intensity (a.u.)
15,ACTATAATGATTTCCTGTGTGGTTGATCTTAGCCTCTAGTCGGAGTCACCTAGTGCAG,8560 fluorescence intensity (a.u.)
16,ACTTGCTACAGTTGGACTCTTTGATATTCATTTCCATGTCCGGAGTCACCTAGTGCAG,11600 fluorescence intensity (a.u.)
17,TAGGTTATCATCTTTGCCTCCTGCCGCCATAGTAGTCGCCCGGAGTCACCTAGTGCAG,8060 fluorescence intensity (a.u.)
18,CGACCGATGCGGTTGGGTCGGGTCGGGTCGGGTCGGATCCCGGAGTCACCTAGTGCAG,10100 fluorescence intensity (a.u.)
19,CCGTCGTCGTCTTCGTCTTCCTCAGTTTATCTCCATTTCTCGGAGTCACCTAGTGCAG,13800 fluorescence intensity (a.u.)
20,TCGGCAACATAGATTCCCATTTATATCCCCTTGTAGTACTCGGAGTCACCTAGTGCAG,8720 fluorescence intensity (a.u.)
21,TAAATCATGACTCAGGGCAGGCAGGGTTCACTTTTTTTTTCGGAGTCACCTAGTGCAG,9230 fluorescence intensity (a.u.)
22,GGTCGTTTGTTCTTTTGTCTTGCCTATTATGCTCCGTCATCGGAGTCACCTAGTGCAG,15100 fluorescence intensity (a.u.)
23,ACACGCCTTTGTTGGATTCAAATCCAATTTCTCTCGTTCACGGAGTCACCTAGTGCAG,9390 fluorescence intensity (a.u.)
24,GAACATTCTTTTTCCACTTTTCACTCGTCGTGTTTAAATGCGGAGTCACCTAGTGCAG,10400 fluorescence intensity (a.u.)
25,ACTGCGTTGCTTTATATCTACTTATATCCGATTCCATGTTCGGAGTCACCTAGTGCAG,12000 fluorescence intensity (a.u.)
26,GATGTTCAGTATTGATTCAAGTTGCAGTGGGGTTTATTGGCGGAGTCACCTAGTGCAG,8070 fluorescence intensity (a.u.)
27,GTTTGTCGGACTTCTCTCCCTCACCTCGCCGGCGGCAAGGCGGAGTCACCTAGTGCAG,9120 fluorescence intensity (a.u.)

# Looked up one by one from above (2):
row,Sequence,binding signal
6,ATTATTTATTCTTTTCATATCATTTGATTCATTGTTAAATCGGAGTCACCTAGTGCAG,8620 fluorescence intensity (a.u.)
24,GAACATTCTTTTTCCACTTTTCACTCGTCGTGTTTAAATGCGGAGTCACCTAGTGCAG,10400 fluorescence intensity (a.u.)

# From publication PMC7819943, “Rice protein-binding microarrays: a tool to detect cis-acting elements near promoter regions in rice”
